The text below walks through data of PubChem BioAssay AID493014 (National Center for Advancing Translational Sciences (NCATS), 2011).

The other results are listed elsewhere or left out. Further columns of the screen follow, without active or inactive calls. The list favours compounds with an active or inconclusive main result. The note in brackets gives the kind of curve behind each potency; many fits are weak.

The experiment in a line: qHTS Assay to Find Inhibitors of Chronic Active B-Cell Receptor Signaling. The conditions noted are these: ABC-DLBCL IkBa-CBG/CBR reporter, luminescence ratio (green luciferase fused to IkBa over red control in TMD8 lymphoma cells), 4 h. Put shortly:
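TMD8 human ABC-DLBCL cells with doxycycline-inducible IκBα–green luciferase fusion and unfused red luciferase, in 0.5% FBS medium; compounds up to 46 uM, 4 h at 37C. Green/red luminescence ratio, filter-overlap corrected, fitted to concentration-response curves.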
Background: qHTS replaces the single test concentration by a dilution series.

The mark [1] stands for this setting: measured here: CBR red luminescence, cell number.
[2] abbreviates: measured here: IkBa-CBG green luminescence.

A word on the AC50: it is the midpoint of the concentration-response curve, whichever way the signal moves. For `C=CCn1c(CNc2ccccc2)nnc1SCC(=O)N/N=C/c1ccccc1O`, under setting [1], the AC50 is 35.5 µM [rising, single point].

With `COCCN=C1N[C@@H](c2ccc(Br)cc2)C(C(=O)OC)=C(C)N1Cc1ccccc1`, the AC50 under setting [1] is 12.6 µM [falling, partial curve].

As for `c1ccc(SCc2nc3ccccc3s2)nc1`, the AC50 under setting [1] is 35.5 µM [falling, single point].

On to `O=C(C[n+]1cc(-c2ccc(F)cc2)n2c1CCC2)N1c2ccccc2Sc2ccccc21`, for which the AC50 under setting [1] was 23.1 µM [falling, partial curve].

With `COc1cc(C(C[N+](=O)[O-])c2c(C)cc3ccccn23)ccc1O` (stereo not drawn), the AC50 under setting [1] is 4.47 µM [falling, full curve].

In the case of `Cc1nc2c(-c3ccccc3)c[nH]n2c(=O)c1Cc1ccccc1`, the AC50 under setting [1] is 22.4 µM [rising, single point] and the AC50 under setting [2] is 35.5 µM [falling, partial curve, poor fit].

With `Cc1ccc(C(=O)Nc2ccccc2SCC2CSc3nc4ccccc4c(=O)n32)cc1` (stereo not drawn), the AC50 under setting [1] was 12.6 µM [falling, single point].

As for `Cc1ccc(N2CCN(C(=O)c3cccc([N+](=O)[O-])c3)CC2)cc1Cl`, the AC50 under setting [1] was 3.98 µM [falling, partial curve, poor fit].

On to `Cc1ccc(CS(=O)(=O)Cc2ccc(C(=O)NCc3ccccn3)o2)cc1`, for which the AC50 under setting [1] was 4.11 µM [rising, single point].

As for `Cc1cc(C(c2ccc(O)cc2)c2cc(C)c(O)cc2C)c(C)cc1O`, the half-maximal activity concentration (AC50) under setting [2] was 12.6 µM [falling, partial curve, poor fit].

Regarding `COc1ccc(NC(=O)c2cc(Br)ccc2Cl)c([N+](=O)[O-])c1`, the concentration at half-maximal activity (AC50) under setting [1] was 7.94 µM [rising, partial curve].

For `CN1CCN(C(=S)C(=O)Nc2ccccc2)CC1`, the AC50 under setting [1] was 15.8 µM [falling, single point].

Consider `O=C(Cc1c(F)cccc1Cl)NCCN1CCOCC1`, for which the AC50 under setting [1] is 35.5 µM [rising, single point].

With `Cc1cc(C)c(S(=O)(=O)Nc2ccc(N(C)C)cc2)c(C)c1-n1cnnn1`, the AC50 under setting [1] was 35.5 µM [falling, single point].

`CC1C(=NO)C(C)C(c2ccc(N(C)C)cc2)NC1c1ccc(N(C)C)cc1` (stereo not drawn): the AC50 under setting [1] is 5.62 µM [rising, partial curve, poor fit].

As for `COc1cccc(CC(=O)Nc2ccc3c(c2)OC2(CCCC2)O3)c1`, the concentration at half-maximal activity (AC50) under setting [1] was 6.51 µM [rising, single point].

As for `O=C1c2cccc3c([N+](=O)[O-])ccc(c23)C(=O)N1c1nccs1`, under setting [1], the AC50 is 16.4 µM [falling, partial curve, poor fit].

Take `Cc1ccccc1OCCNc1ccc(C(F)(F)F)cc1[N+](=O)[O-]`: the AC50 under setting [1] is 2.51 µM [rising, partial curve, poor fit].

For `COc1cc2c(cc1OC)[C@@H](NC(=O)C(C)C)[C@H](O)C2`, under setting [1], the AC50 was 29.1 µM [rising, single point].

For the molecule `COc1ccccc1CNC(=O)COC(=O)CSc1ccc(C)c(C)c1`, under setting [1], the AC50 was 25.9 µM [rising, partial curve, poor fit].

Consider `Cc1ccc2c(c1)c1ncnc(N3CCc4ccccc4C3)c1n2C`, for which, under setting [1], the AC50 was 2.24 µM [rising, partial curve, poor fit].

As to `OCC[C@@H]1C[C@@H](O)[C@H](O)[C@@]2(OCc3ccccc32)O1`, under setting [1], the half-maximal activity concentration (AC50) is 8.91 µM [falling, partial curve, poor fit].

Turning to `COc1ccc(-c2nn(-c3ccccc3)cc2/C=N/NC(N)=S)cc1OC`, the AC50 under setting [1] was 16.4 µM [falling, single point] and the AC50 under setting [2] is 18.4 µM [falling, partial curve].

Regarding `Fc1cccc(/C=N/Nc2ccccn2)c1`, the AC50 under setting [1] was 2.82 µM [rising, partial curve].

Regarding `CCOC(=O)C1CCCN(c2c(C(=O)c3ccccc3)cnc3ccccc23)C1` (stereo not drawn), the AC50 under setting [1] is 14.1 µM [falling, single point].

In the case of `O=S1OC(c2ccccc2)c2cc(Cl)ccc21` (stereo not drawn), the AC50 under setting [1] was 23.1 µM [rising, partial curve, poor fit].

Consider `Cc1cc(C)c2cc(C(c3nnnn3C3CCCC3)N3CCOCC3)c(=O)[nH]c2c1` (stereo not drawn), for which the AC50 under setting [1] is 3.55 µM [rising, single point].

Regarding `CCNc1ccccc(C(=O)/C=C/c2ccc3c(c2)OCO3)c1=O`, the AC50 under setting [1] was 6.51 µM [falling, single point].

Turning to `O=C(Cc1ccc(Cl)cc1Cl)OCC(=O)N1CCN(C(=O)c2ccco2)CC1`, the AC50 under setting [1] is 0.0891 µM [rising, full curve, poor fit].

With `Cc1ccc(NC(=O)c2nc(S(=O)(=O)Cc3ccccc3)ncc2Cl)cc1`, under setting [1], the AC50 is 5.62 µM [falling, full curve].

Consider `Cn1c(=O)c2c(nc(SCC(=O)N3CCc4ccccc43)n2Cc2ccccc2)n(C)c1=O`, for which, under setting [1], the AC50 is 29.1 µM [rising, single point].

Take `FC(F)(F)c1ccc2c(c1)C1C=CCC1C(c1ccncc1)N2` (stereo not drawn): under setting [1], the AC50 was 11.2 µM [falling, single point].

`COc1ccc(O)c(CNn2c(-c3ccc(Br)cc3)nc3ccccc3c2=O)c1`: the AC50 under setting [1] is 0.0891 µM [falling, full curve, poor fit].

For `COCCNC(=O)c1cc2cc3ccc(OC)cc3nc2o1`, under setting [1], the AC50 is 15.8 µM [falling, single point].

Regarding `Cc1cc(/C=C2/NC(=O)N(Cc3ccccc3F)C2=O)c(C)n1C(C)C`, under setting [1], the AC50 was 20.6 µM [falling, single point].

For `O=c1nc2cccc3c2=c(/c1=C(\O)c1ccccc1)c1ccccc1c3=O`, under setting [1], the AC50 was 1.26 µM [falling, full curve, poor fit].

For `COCCn1c(C)cc(C2=NNC(=Nc3ccccc3F)SC2)c1C`, under setting [1], the AC50 was 23.1 µM [falling, single point].

On to `O=C(COC(=O)c1cc2ccccc2cc1O)Nc1ccccc1F`, for which the AC50 under setting [1] was 0.461 µM [rising, full curve, poor fit].

With `CS(=O)(=O)c1ccc(C(=O)OCc2nnc(-c3ccccc3)o2)cc1[N+](=O)[O-]`, the AC50 by setting is: under setting [1], 12.6 µM [falling, partial curve]; under setting [2], 35.5 µM [rising, single point].

Regarding `COc1ccccc1NC(=O)c1ccc(NC(=O)CSc2nnnn2C)cc1`, the AC50 under setting [1] is 23.1 µM [falling, single point].
